Where a name gives a salt, the structure may show the parent alone. Hit rate of the full screen: of about 5,300 compounds, about 130 (2.5%) showed an effect of 50% or more. This is one part of the list.

The assay has as its system M. mycetomatis strain mm55. The following applies: primary screen, metabolic activity vs growth control; 96 h, 2 µM; inhibitor.
With `COc1cc2nc(N3CCN(C(=O)C4CCCO4)CC3)nc(N)c2cc1OC` (stereo not drawn) [ONC0001575, terazosin], the “% viability” value was 104.2%.

For the compound `O=S(=O)(Cc1ccccc1)Nc1ccc(-c2ccc3c(cnn3-c3ccc(F)cc3)c2)c(C(F)(F)F)c1` [ONC0001631, gsk9027], the “% viability” value worked out at 55.93%.

For the compound `CN(C)CCC1(c2ccc(Cl)cc2)Cc2ccccc2C(=O)O1` (stereo not drawn) [ONC0003131, ac7954], the “% viability” value is listed as 76.48%.

Regarding `Nc1ccc(S(=O)(=O)Nc2ccc(Cl)nn2)cc1` [ONC0000623, sulfachlorpyridazine], the “% viability” value amounted to 114.6%.

With `CC(=O)NC(C(=O)O)C(C)(C)SN=O` (stereo not drawn) [ONC0003845, snap], the “% viability” value turned out to be 60.59%.

With `Cc1ccc(/C=N/NC(=O)c2ccccc2Oc2ccccc2)o1` [ONC0000253, pnu74654], the “% viability” value amounted to 69.62%.

For `Cc1cc2nc3ccc(N(C)C)cc3[s+]c2cc1N` [ONC0005325, tolonium chloride], the “% viability” value worked out at 64.78%.

For the compound `CC(=O)[C@H]1CC[C@H]2[C@@H]3CCC4=CC(=O)CC[C@]4(C)[C@H]3[C@H](O)C[C@]12C` [ONC0005298, stetaderm], the “% viability” value is 80.33%.

Turning to `CNC(=O)c1nn(C)c2c1C(C)(C)Cc1cnc(Nc3ccc(N4CCN(C)CC4)cc3)nc1-2` [ONC0004754, pha848125], the “% viability” value worked out at 93.97%.

As for `CC[C@@H](c1ccc(F)c(F)c1)n1c(C(=O)OC)c(-c2ccno2)[nH]c1=S` [ONC0002701, jnj27141491], the “% viability” value is 54.51%.

As to `O=C(NC1Cc2ccccc2N(C[C@@H](O)CO)C1=O)c1cc2cc(Cl)sc2[nH]1` (stereo partly drawn) [ONC0002471, gpi688], the “% viability” value was determined as 65.21%.

Regarding `CC(C)CCN1c2nc(Nc3cc(F)c(O)c(F)c3)ncc2N(C)C(=O)C1C` (stereo not drawn) [ONC0004496, bid1870], the “% viability” value came out at 46.32%.

Take `O=C1NC(=O)/C(=C/c2ccc(-c3ccc(F)cc3O)o2)S1` [ONC0005022, as252424]: the “% viability” value is on record as 99.61%.

Regarding `CCCn1c(=O)c2[nH]c(-c3ccccc3)nc2n(CCC)c1=O` [ONC0003016, 13dipropyl8phenylxanthine], the “% viability” value turned out to be 124.5%.

Turning to `CCC[C@H](N[C@@H](C)C(=O)N1[C@H](C(=O)O)C[C@@H]2CCCC[C@@H]21)C(=O)O` [ONC0004286, perindoprilat], the “% viability” value turned out to be 84.02%.

As to `Cc1cnc(Nc2ccc(N3CCN(C)CC3)cc2)nc1Nc1cccc(S(=O)(=O)NC(C)(C)C)c1` [ONC0004656, tg101209], the “% viability” value was 72.92%.

Consider `OC[C@@H](O)[C@@H](O)CO` [ONC0002759, erythritol], for which the “% viability” value turned out to be 109.4%.

In the case of `CC[C@]12CCCN3CCc4c(n(c5ccccc45)C(=O)C1)[C@@H]32` [ONC0003441, eburnamonine], the “% viability” value was found to be 44.28%.

In the case of `O=C1C(CC[S+]([O-])c2ccccc2)C(=O)N(c2ccccc2)N1c1ccccc1` (stereo not drawn) [ONC0000462, sulfinpyrazone], the “% viability” value was 72.77%.

Turning to `O=C(Cc1ccc(-c2ccccc2)cc1)Nc1ccccn1` [ONC0003751, difenpiramide], the “% viability” value was found to be 141.2%.

As to `NS(=O)(=O)c1cc2c(cc1Cl)N=C(CSCc1ccccc1)NS2(=O)=O` [ONC0003290, benzthiazide], the “% viability” value is on record as 56.37%.

Take `CCCCC(=O)OCC(=O)[C@]1(O)Cc2c(O)c3c(c(O)c2[C@@H](O[C@H]2C[C@H](NC(=O)C(F)(F)F)[C@H](O)[C@H](C)O2)C1)C(=O)c1c(OC)cccc1C3=O` [ONC0000971, valrubicin]: the “% viability” value amounted to 71.95%.

For the compound `CC(=O)OC/C=C(C)/C=C/C=C(C)/C=C/C1=C(C)CCCC1(C)C` [ONC0003087, retinyl acetate], the “% viability” value was 76.93%.

Consider `CCOc1cc2ncc(C#N)c(Nc3ccc(OCc4cccc(F)c4)c(Cl)c3)c2cc1NC(=O)/C=C/CN(C)C` [ONC0000227, hki357], for which the “% viability” value is 74.17%.

`CCC(COC(=O)c1cc(OC)c(OC)c(OC)c1)(c1ccccc1)N(C)C` (stereo not drawn) [ONC0004247, trimebutine maleate]: the “% viability” value worked out at 75.79%.

As for `Clc1ccc2c(c1)N=C(N1CCNCC1)c1ccccc1N2` [ONC0001437, desmethylclozapine], the “% viability” value is recorded as 51.88%.

Consider `CC(C)(C)NCC(O)c1ccc(O)cc1Cl` (stereo not drawn) [ONC0001099, hoku81], for which the “% viability” value turned out to be 66.81%.

`CC(C)Oc1cccc(-n2c(CCc3c[nH]c4ccc(Br)cc34)nc3ccccc3c2=O)c1` [ONC0001496, ly225910]: the “% viability” value stood at 56.54%.

In the case of `CC[C@H](C)n1cc(C)c2c(C(=O)NCc3c(C)cc(C)[nH]c3=O)cc(-c3ccc(N4CCNCC4)nc3)cc21` [ONC0001059, gsk126], the “% viability” value is given as 55.52%.

With `NC(=O)c1noc([C@H](CCCC2CCCCC2)CC(=O)NO)n1` [ONC0004989, uk 383367], the “% viability” value came to 94.55%.

With `CC1(CN2CCC(n3c(=O)[nH]c4ccccc43)CC2)OCc2ccccc2-n2cccc21` (stereo not drawn) [ONC0000094, zaldaride maleate], the “% viability” value is given as 79.02%.

On to `COc1ccc(CCN(C)CCc2ccc(OC)c(OC)c2)cc1OC` [ONC0001747, ys035], for which the “% viability” value stood at 78.06%.

For the compound `CC(=O)O[C@]1(C(C)=O)CC[C@H]2[C@@H]3C=C(C)C4=CC(=O)CC[C@@H]4[C@H]3CC[C@@]21C` [ONC0002838, nomegestrolacetate], the “% viability” value stood at 99%.

As for `CC(C)[C@@H]1CC[C@@H](C)C[C@H]1O` [ONC0003141, levomenthol], the “% viability” value is given as 69.71%.

On to `NC1(c2ccc(-c3nc4ccn5c(=O)[nH]nc5c4cc3-c3ccccc3)cc2)CCC1` [ONC0004905, mk2206 dihydrochloride], for which the “% viability” value came to 130.5%.

With `C[C@@H]1CC(=O)NN=C1c1ccc(NN=C(C#N)C#N)cc1` [ONC0002839, levosimendan], the “% viability” value came to 115.3%.

In the case of `COc1ccc(-c2nc(C(=O)N3CCN(C)CC3)sc2-c2ccc(OC)cc2)cc1` [ONC0001615, fr122047], the “% viability” value came to 72.5%.

In the case of `Cc1ccc(Oc2ccccc2-c2csc(N=C3NCCCN3)n2)c(C)c1` [ONC0002741, abafungin], the “% viability” value was found to be 79.84%.

In the case of `COc1cccc(OC)c1-c1ccc(C[C@H](NC(=O)c2c(Cl)cccc2Cl)C(=O)O)cc1` [ONC0001090, tr14035], the “% viability” value was 78.15%.

These data come from article PMC12670160, “A drug-repurposing screen of FDA- and EMA-approved drugs identifies two NF-κB inhibitors active against eumycetoma” (Journal of Antimicrobial Chemotherapy, 2025).
